One substance from patent publication US4269827A (The Massachusetts General Hospital, priority 1980, dated 1981) can be followed below.

HELM strings list residues between dots; [ac] is acetyl, [am] amide, other brackets name non-standard units.

The series is described as follows: general procedure: Boc solid-phase peptide synthesis; polymer beads; dicyclohexylcarbodiimide. Particulars: whole synthesis.

As to PEPTIDE1{P.H.P.F.H.F.F.V.Y.K}$$$$V2.0, the crude yield was determined as 53% and the isolated yield stood at 30%.
